This is an account of results in the supplement of paper PMC10849652.

Sequences of proteins named here, by UniProt entry; tags and fusion partners are left off. A change or cut given only in a name is not applied to a line headed by its entry.
UniProt O15355: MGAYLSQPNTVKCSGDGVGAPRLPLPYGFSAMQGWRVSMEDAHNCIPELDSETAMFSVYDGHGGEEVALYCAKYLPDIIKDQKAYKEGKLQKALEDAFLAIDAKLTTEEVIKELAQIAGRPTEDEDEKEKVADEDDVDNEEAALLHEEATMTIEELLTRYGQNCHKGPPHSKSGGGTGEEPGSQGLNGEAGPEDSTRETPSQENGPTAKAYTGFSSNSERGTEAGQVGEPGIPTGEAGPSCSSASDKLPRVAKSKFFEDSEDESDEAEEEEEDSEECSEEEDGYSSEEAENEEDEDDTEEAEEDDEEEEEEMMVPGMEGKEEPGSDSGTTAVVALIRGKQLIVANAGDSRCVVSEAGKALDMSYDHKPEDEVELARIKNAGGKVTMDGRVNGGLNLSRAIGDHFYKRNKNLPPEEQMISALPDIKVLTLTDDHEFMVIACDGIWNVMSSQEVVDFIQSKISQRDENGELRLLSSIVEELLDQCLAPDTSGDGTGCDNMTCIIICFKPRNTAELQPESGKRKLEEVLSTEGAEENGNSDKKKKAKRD
UniProt P07478, whole entry, looked up: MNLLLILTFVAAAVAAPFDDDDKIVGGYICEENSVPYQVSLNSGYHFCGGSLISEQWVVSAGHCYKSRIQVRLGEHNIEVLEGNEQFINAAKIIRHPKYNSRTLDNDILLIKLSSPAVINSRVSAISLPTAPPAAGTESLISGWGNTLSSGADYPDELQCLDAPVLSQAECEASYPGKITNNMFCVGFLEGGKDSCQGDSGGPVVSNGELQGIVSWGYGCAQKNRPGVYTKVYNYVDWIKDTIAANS
UniProt Q99633: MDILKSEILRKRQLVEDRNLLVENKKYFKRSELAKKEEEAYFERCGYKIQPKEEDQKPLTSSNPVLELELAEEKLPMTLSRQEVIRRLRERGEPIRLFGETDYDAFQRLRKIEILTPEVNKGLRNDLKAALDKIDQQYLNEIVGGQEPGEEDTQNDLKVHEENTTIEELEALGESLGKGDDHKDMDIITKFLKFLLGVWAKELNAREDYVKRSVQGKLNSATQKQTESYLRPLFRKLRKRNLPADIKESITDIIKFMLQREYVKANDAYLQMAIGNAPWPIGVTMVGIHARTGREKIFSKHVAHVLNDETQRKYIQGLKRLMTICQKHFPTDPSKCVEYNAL
UniProt Q6ZMI0: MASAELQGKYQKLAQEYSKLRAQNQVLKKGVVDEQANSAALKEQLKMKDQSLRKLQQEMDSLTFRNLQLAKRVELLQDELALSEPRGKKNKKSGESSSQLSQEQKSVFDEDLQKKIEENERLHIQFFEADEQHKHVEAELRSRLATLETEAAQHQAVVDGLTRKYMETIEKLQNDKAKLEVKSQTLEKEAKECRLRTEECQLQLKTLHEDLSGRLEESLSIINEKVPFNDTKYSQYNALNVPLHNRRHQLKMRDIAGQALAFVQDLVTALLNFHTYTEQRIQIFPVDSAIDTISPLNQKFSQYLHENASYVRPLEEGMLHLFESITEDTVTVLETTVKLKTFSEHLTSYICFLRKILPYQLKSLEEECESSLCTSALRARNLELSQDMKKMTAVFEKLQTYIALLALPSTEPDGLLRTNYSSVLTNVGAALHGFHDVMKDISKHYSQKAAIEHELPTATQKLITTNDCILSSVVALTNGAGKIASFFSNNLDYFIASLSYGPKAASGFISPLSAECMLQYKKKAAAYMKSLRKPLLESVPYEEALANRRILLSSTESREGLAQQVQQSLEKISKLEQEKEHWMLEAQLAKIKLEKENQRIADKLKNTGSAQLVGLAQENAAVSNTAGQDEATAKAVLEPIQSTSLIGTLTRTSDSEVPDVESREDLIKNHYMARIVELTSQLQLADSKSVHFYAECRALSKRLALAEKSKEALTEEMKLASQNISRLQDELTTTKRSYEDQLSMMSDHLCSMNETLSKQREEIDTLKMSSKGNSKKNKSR
UniProt O94806: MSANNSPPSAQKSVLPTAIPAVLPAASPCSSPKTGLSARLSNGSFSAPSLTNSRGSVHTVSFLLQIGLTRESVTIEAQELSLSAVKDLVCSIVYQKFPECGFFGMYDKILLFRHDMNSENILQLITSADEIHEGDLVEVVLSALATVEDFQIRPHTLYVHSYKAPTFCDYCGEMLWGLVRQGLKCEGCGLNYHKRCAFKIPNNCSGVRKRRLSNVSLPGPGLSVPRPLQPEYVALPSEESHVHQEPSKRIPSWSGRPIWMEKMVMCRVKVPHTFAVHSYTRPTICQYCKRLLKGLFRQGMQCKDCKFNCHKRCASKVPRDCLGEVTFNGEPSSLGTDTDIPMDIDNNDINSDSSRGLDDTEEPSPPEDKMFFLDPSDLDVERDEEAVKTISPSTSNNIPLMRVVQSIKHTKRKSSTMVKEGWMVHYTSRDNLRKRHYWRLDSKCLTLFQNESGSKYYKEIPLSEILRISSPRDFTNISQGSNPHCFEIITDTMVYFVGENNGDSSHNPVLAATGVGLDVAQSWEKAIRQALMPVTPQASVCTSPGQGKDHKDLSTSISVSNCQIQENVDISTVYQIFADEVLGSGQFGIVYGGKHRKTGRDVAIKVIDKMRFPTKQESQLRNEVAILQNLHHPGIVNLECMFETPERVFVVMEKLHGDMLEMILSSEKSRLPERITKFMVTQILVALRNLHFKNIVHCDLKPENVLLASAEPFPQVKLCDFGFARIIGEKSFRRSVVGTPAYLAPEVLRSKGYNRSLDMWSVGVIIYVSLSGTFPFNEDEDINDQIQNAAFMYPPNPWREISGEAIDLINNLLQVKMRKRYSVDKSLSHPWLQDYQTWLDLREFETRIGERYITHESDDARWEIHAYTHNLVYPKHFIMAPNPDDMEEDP
UniProt Q9Y255: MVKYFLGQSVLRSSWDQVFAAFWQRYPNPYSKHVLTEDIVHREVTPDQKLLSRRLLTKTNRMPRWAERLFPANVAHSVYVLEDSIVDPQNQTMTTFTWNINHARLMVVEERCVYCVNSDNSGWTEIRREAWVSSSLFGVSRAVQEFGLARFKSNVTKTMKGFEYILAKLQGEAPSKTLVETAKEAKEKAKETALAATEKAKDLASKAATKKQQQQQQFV
UniProt Q15172: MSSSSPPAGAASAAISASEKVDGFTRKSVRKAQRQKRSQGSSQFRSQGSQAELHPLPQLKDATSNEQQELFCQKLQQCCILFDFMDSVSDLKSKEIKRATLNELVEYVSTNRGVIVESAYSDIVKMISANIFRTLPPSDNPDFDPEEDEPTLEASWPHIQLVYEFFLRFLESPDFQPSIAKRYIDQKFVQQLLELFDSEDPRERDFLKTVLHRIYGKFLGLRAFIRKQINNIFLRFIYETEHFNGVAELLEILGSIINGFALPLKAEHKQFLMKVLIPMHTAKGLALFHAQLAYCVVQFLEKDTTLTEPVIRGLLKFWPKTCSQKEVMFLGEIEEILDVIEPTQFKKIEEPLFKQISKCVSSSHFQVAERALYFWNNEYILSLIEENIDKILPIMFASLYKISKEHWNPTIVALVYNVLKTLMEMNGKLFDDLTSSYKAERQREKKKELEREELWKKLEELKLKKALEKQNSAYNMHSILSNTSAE

Some of the results follow. Residues, ends and D or L forms follow the SMILES beside them. *: point of attachment. Cbz = O=C(OCc1ccccc1)*

Common to all, as to assay: log2 fold change, soluble protein after heating vs DMSO (PISA); higher = thermal stabilisation; K562 cells, 10 uM, 30 min; active = over 0.2 and 3.5 SD of the protein, either way, in both replicates (recomputed)
Compound in experiment [1]: C#Cc1cccc(Nc2ncnc3cc(OCCOC)c(OCCOC)cc23)c1 [erlotinib]
Summed up: (§1)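 K562 cells at 2×10^6 cells/mL were exposed to 10 μM compound for 30 min, then aliquots were heated for 3 min across 48°C-58°C, pooled, and extracted in PBS containing 0.5% NP-40 at 4°C. The supernatant after 21,000xg for 90 min was taken as soluble protein and measured by TMTpro 16plex LC-MS/MS with channel sums equalised. Thermal stability is reported relative to control samples, with values from duplicates. Fold changes are given on a log2 scale.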

Compound in experiment [2]: C/C(=N\NC(=O)C1=CC(=CC=C1)S(=O)(=O)N2CCOCC2)/C3=C(C=CC(=C3)Cl)O
The procedure, abridged:
as §1

Compound in experiment [3]: C1=CC(=C(C=C1Cl)C2=NC3=NC=CN=C3C(=N2)NC4=CC=NC=C4)F
Summed up:
as §1

Compound in experiment [4]: C1=CC(=CC=C1C2=NC3=C(N2)C=C(C=C3)C(=O)N)OC4=CC=C(C=C4)Cl
Summed up: as §1

Compound in experiment [5]: C1=CC2=C(C=CC(=C2)/C=C\3/C(=O)NC(=NCC4=CC=CS4)S3)N=C1
Summed up:
as §1

Compound in experiment [6]: C1=CC2=NC=CN=C2C=C1/C=C/3\C(=O)NC(=O)S3
Summed up: as §1

Compound in experiment [7]: C1=CC=C(C=C1)C2=NC(=C(N2)C3=CC=NC=C3)C4=CC(=C(C=C4)Cl)O
Summed up: as §1

Compound in experiment [8]: C1=CC=C2C(=C1)C3=NNC4=CC=CC(=C43)C2=O
The procedure, abridged: as §1

Compound in experiment [9]: C1CCN(C1)C(=O)NC2=CC=CC(=C2)NC3=NC=C(C(=N3)NCCC4=CN=CN4)Br
Summed up: as §1

Compound in experiment [10]: C1CN(CCC1(CC2=CC=C(C=C2)Cl)N)C3=NC=NC4=C3C=CN4
The procedure, abridged: as §1

Compound in experiment [11]: C1COCCN1CCN2C3=CC=CC=C3N=C2NC(=O)C4=CC(=CC=C4)[N+](=O)[O-] [IRAK-1-4 Inhibitor I]
Summed up: as §1

Compound in experiment [12]: C=CC(=O)N1CCC[C@@H](n2nc(-c3ccc(Oc4ccccc4)cc3)c3c(N)ncnc32)C1 [ibrutinib]
The procedure, abridged:
as §1

Compound in experiment [13]: CC(=O)c1cnc2ccc(-c3cc(Cl)c(O)c(Cl)c3)nc2c1N[C@H]1CC[C@H](CN(C)C)CC1
Summed up: as §1

Compound in experiment [14]: CC(C)(C)Cn1c(N)nc2ccc(-c3[nH]c(C(C)(C)C)nc3-c3ccc(F)cc3)nc21 [ralimetinib]
The procedure, abridged: as §1

Compound in experiment [15]: CC(C)(O)CC(=O)NCCn1ccc2ncnc(Nc3ccc(Oc4cccc(C(F)(F)F)c4)c(Cl)c3)c21
Summed up:
as §1

Compound in experiment [16]: CC(C)C1=C2N=C(C=C(N2N=C1)NCC3=CC=CC=C3)NCCCCCCN
Summed up:
as §1

Compound in experiment [17]: CC(C)C[C@@H](C=O)NC(=O)[C@H](CC(C)C)NC(=O)[C@H](CC(C)C)NC(=O)OCc1ccccc1
Summed up:
as §1

Compound in experiment [18]: CC(C)N(C[C@H]1O[C@@H](n2cnc3c(N)ncnc32)[C@H](O)[C@@H]1O)[C@H]1C[C@@H](CCc2nc3cc(C(C)(C)C)ccc3[nH]2)C1 [pinometostat]
The procedure, abridged:
as §1

Compound in experiment [19]: CC1=C(C2=C(C=C1)C(=O)C3=CC=CC=C3N2CCCN)C
The procedure, abridged:
as §1

Compound in experiment [20]: CC1=C(C(CC(=O)N1)C2=CC=C(C=C2)C(F)(F)F)C(=O)NC3=C(C=C4C(=C3)C=NN4)F
Summed up: as §1

As for PRKCG (UniProt P05129), the log2 fold change in experiment [1] was inactive: -0.04; in [2], inactive: 0.058; in experiment [3], inactive: 0.052; in experiment [4] it was inactive: 0.04; in experiment [5], inactive: 0.144; in experiment [6], inactive: -0.033. Moreover, the log2 fold change in [7] is inactive: 0.074; in experiment [8], inactive: 0.023; in experiment [9], inactive: -0.052; in experiment [10], inactive: -0.138; in [11], inactive: 0.025; in experiment [12] it was inactive: -0.024. Moreover, the log2 fold change is inactive: -0.351 in experiment [13]; inactive: 0.049 in [14]; inactive: -0.099 in experiment [15]; inactive: -0.097 in [16]; inactive: 0.055 in experiment [17]; inactive: 0.054 in [18]. Moreover, the log2 fold change in [19] is inactive: 0.028.
In the case of PPM1G (UniProt O15355), the log2 fold change was inactive: 0.117 in experiment [1]; inactive: 0.118 in experiment [2]; inactive: 0.009 in experiment [3]; inactive: -0.017 in [4]; inactive: 0.024 in experiment [5]; inactive: 0.035 in experiment [6]. For the same target, the log2 fold change in experiment [7] is inactive: -0.052; in experiment [8], inactive: -0.022; in experiment [9] it was inactive: -0.011; in experiment [10], inactive: -0.065; in experiment [11], inactive: -0.095; in experiment [12], inactive: -0.102. In addition, the log2 fold change in experiment [13] is inactive: -0.098; in experiment [14], inactive: -0.044; in experiment [15], inactive: -0.17; in [16], inactive: -0.223; in experiment [17], inactive: 0.088; in [18], inactive: -0.067. Also, in [19], the log2 fold change is inactive: -0.002.
Take PRSS2 (UniProt P07478): the log2 fold change in [1] is inactive: 0.142; in experiment [2], inactive: -0.045; in experiment [3], inactive: 0.271; in experiment [4] it was inactive: -0.065; in experiment [5], inactive: 0.023; in [6], inactive: -0.016. In addition, the log2 fold change in experiment [8] was inactive: -0.047; in experiment [9], inactive: 0.215; in [10], inactive: 0.009; in [11], inactive: 0; in [12], inactive: 0.099; in experiment [13], inactive: -0.024. For the same target, the log2 fold change was inactive: 0.068 in [15]; inactive: -0.09 in [16]; inactive: 0.06 in [18]; inactive: -0.048 in experiment [20]; inactive: -0.294 in experiment [19].
As to PPP3CA (UniProt Q08209), the log2 fold change is inactive: 0.035 in [1]; inactive: 0.015 in [2]; inactive: -0.003 in [4]; inactive: 0.116 in [5]; inactive: 0.015 in experiment [6]; inactive: -0.118 in [7]. The log2 fold change was inactive: -0.012 in [8]; inactive: -0.066 in experiment [9]; inactive: 0.029 in [10]; inactive: 0.083 in experiment [11]; inactive: -0.01 in experiment [12]; inactive: 0.089 in experiment [13]. The log2 fold change in experiment [14] was inactive: -0.099; in experiment [16] it was inactive: 0.043; in experiment [17], inactive: -0.061; in [18] it was inactive: -0.04; in [20], inactive: -0.173; in experiment [19], inactive: -0.163.
As to PRPF18 (UniProt Q99633), the log2 fold change was inactive: 0.07 in [1]; inactive: 0.11 in experiment [2]; inactive: 0.024 in [3]; inactive: -0.183 in experiment [4]; inactive: 0.084 in experiment [5]; inactive: -0.031 in [6]. Further, the log2 fold change in [8] was inactive: -0.051; in experiment [9] it was inactive: -0.28; in experiment [10], inactive: 0.143; in experiment [11], inactive: 0.036; in experiment [12], inactive: -0.045; in experiment [13], inactive: -0.203. The log2 fold change in experiment [15] is inactive: -0.191; in experiment [16] it was inactive: 0.032; in experiment [18], inactive: -0.107; in experiment [20] it was inactive: -0.018; in experiment [19], inactive: -0.048.
As for PPP1R21 (UniProt Q6ZMI0), the log2 fold change is inactive: -0.056 in experiment [1]; inactive: 0.072 in experiment [2]; inactive: 0.171 in [3]; inactive: 0.016 in experiment [4]; inactive: 0.097 in [5]; inactive: -0.036 in [6]. In addition, the log2 fold change is inactive: 0.033 in experiment [8]; inactive: 0.057 in [12]; inactive: -0.078 in [13]; inactive: -0.15 in experiment [15]; inactive: 0.026 in [16]; inactive: 0.131 in experiment [20].
Consider PRKD3 (UniProt O94806), for which the log2 fold change in experiment [1] was inactive: 0.051; in experiment [2] it was inactive: 0.373; in [4] it was inactive: 0.013; in experiment [5] it was inactive: -0.197; in experiment [6], inactive: 0.034; in experiment [7] it was inactive: 0.055. In addition, the log2 fold change in [8] was inactive: -0.507; in [11], inactive: 0.189; in [12] it was inactive: 0.059; in experiment [13], active: -2.06; in [14], inactive: -0.089; in [16] it was inactive: -0.129. In addition, the figures for the log2 fold change in [17] and in experiment [18] were inactive: 0.06 and inactive: 0.266, respectively.
With PRELID1 (UniProt Q9Y255), the log2 fold change is inactive: -0.168 in [1]; inactive: -0.016 in experiment [3]; inactive: 0.111 in experiment [4]; inactive: 0.033 in experiment [6]; inactive: -0.178 in [9]; inactive: 0.184 in experiment [10]. In addition, the log2 fold change in experiment [11] is inactive: 0.148; in experiment [12] it was inactive: -0.06; in experiment [15] it was inactive: 0.085; in [16], inactive: 0.224; in experiment [18], inactive: -0.054; in experiment [20], inactive: -0.025. The log2 fold change in experiment [19] is inactive: -0.123.
Take PPP2R5A (UniProt Q15172): the log2 fold change in [1] was inactive: 0.011; in [2], inactive: 0.098; in experiment [3], inactive: 0.009; in experiment [4], inactive: -0.022; in experiment [5], inactive: 0.018; in experiment [6] it was inactive: 0.055. Besides, the log2 fold change in experiment [7] is inactive: 0.078; in experiment [8], inactive: 0.017; in experiment [9], inactive: 0; in experiment [10], inactive: -0.015; in experiment [11] it was inactive: 0.005; in experiment [12], inactive: -0.024. The log2 fold change is inactive: 0.004 in experiment [13]; inactive: 0.066 in experiment [14]; inactive: -0.16 in experiment [15]; inactive: -0.193 in experiment [16]; inactive: 0.023 in [17]; inactive: 0.025 in [18]. In experiment [19], the log2 fold change is inactive: 0.071.
